{
  "source": "ChEMBL document CHEMBL1138139",
  "about": "“Synthesis of 1-(3',4',5'-trimethoxy) phenyl naphtho[2,1b]furan as a novel anticancer agent” (Bioorg Med Chem Lett, 2006)",
  "tested_on": "MCF7",
  "assay": "Cytotoxicity against MCF7 cell line by MTT assay",
  "type": "functional, cell-based",
  "conditions": "Homo sapiens",
  "data": [
    {"compound": "CC(=O)O[C@H]1C(=O)[C@@]2(C)[C@H]([C@H](OC(=O)c3ccccc3)[C@]3(O)C[C@H](OC(=O)[C@H](O)[C@@H](NC(=O)c4ccccc4)c4ccccc4)C(C)=C1C3(C)C)[C@]1(OC(C)=O)CO[C@@H]1C[C@@H]2O", "note": "[PACLITAXEL]", "values": [
      {"measurement": "IC50", "result": 5, "unit": "ng/mL"}
    ]}
  ]
}
